Results are given in words; binding and its absence hold for the method and conditions named. Some binding calls cover weakened binding; strength is not graded here.
T1: ECD2, P2X7 receptor (47-306), soluble (Homo sapiens (Human)) (UniProt Q99572)
T1 sequence: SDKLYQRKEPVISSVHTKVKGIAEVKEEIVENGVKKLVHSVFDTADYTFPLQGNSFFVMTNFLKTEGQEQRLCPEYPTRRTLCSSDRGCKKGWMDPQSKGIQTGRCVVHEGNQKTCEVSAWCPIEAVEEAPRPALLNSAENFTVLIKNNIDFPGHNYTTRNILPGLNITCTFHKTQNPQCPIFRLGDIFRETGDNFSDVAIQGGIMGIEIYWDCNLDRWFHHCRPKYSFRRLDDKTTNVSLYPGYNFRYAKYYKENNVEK

T2: pDisplay-ECD2 on HEK293 cells (Homo sapiens (Human)) (UniProt Q99572)
T2 sequence: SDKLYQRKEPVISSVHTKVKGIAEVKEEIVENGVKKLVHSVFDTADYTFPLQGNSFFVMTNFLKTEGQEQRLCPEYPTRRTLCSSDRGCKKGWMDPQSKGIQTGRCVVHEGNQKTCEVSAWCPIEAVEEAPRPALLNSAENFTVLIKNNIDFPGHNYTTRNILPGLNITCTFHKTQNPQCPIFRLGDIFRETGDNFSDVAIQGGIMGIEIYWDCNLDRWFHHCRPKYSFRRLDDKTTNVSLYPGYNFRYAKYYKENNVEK


What was measured:
[1] = molecular target: T1, ECD2, P2X7 receptor (47-306), soluble (Homo sapiens (Human)); test: Biacore, 10 and 5 nM. The surface is not named for this figure; ECD2 domain is taken from the context of paragraph 361 and paragraph 362
[2] = molecular target: T2, pDisplay-ECD2 on HEK293 cells (Homo sapiens (Human)); test: flow cytometry, live HEK293E cells expressing pDisplay-ECD2 ('HEK293E-pDisplay ED'), dAb at 5 uM, detection with anti-human IgG Fab

Row | Binder | binding [1] | binding [2]
1 | PEP2-472-12Alexa488 domain (protein, Alexa488 label attached (site not stated)) VH: EVQLLESGGGLVQPGGSLRLSCAASGYTFPMKDMGWVRQAPGKGLEWVSAISGSGGGTYYADSVKGRFTISRDNSKNTLYLQMNSLRAEDTAVYYCAEPKPMDTEFDYRSPGTLVTVSS | binds | 
2 | 42.1 (protein) VH single domain (dAb): EVQMLESGGGLVQPGGSLRLSCAASGFTFDNVEMSWVRQAPGKGLEWVSSIGTKGEYTYYADSVKGRFTISRDNSKNTLYLQMNSMRAEDTAVYYCAQTVNVPEPAFAYWGQGTLVTVLS |  | binds

Source: US20250084161A1
